Laboratory results from PMC7968458.

The chains behind the UniProt entries cited, without tags or fusion partners.
UniProt Q61025: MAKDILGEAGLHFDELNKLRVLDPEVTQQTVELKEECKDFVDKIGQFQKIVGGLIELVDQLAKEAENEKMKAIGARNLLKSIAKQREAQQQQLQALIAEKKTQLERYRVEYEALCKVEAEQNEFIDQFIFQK
UniProt Q9WVA4: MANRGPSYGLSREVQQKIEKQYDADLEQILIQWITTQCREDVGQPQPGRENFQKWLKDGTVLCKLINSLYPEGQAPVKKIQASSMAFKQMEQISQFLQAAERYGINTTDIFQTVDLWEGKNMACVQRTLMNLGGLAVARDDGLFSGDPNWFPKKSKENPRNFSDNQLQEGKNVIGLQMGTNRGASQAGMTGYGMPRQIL

B1: Ctnnal1 (protein, UniProt O88327 1-731)
chain: MAASPVPGGGGAGAVHSSNAAGFTFDSGLEIRTRSVEQTLLPLVSQITTLINHKDNTKKSDKTLQAIQRVGQAVNLAVGRFVKVGEAIANENWDLKEEINIACIEAKQAGETIASLTDVTKRSHLESDGQVTILTDKTGVVQAARLLLSSVTKVLLLADRVVIKQIVTSRNKILATMERLEKVNSFQEFVQIFSQFGNEMVEFAHLTGDRQNDLKDEKKKARMAVARAVLEKGTMMLLTASKTCLRHPSCESAHTNKEGVFDRMRVALEKVTEIVTDCRLSGETDSSSVSIFTGIKELKVNIEALRENVCFESKENLSAALEAVLEHVEDFTDSAYTSHEHRERILELSSQARTELQQLLSVWMQTQSRKTKSAAEELELTVLKISHSLDELRRELHCTAMQLAADLLKFHADHVVLKALKVTGVEGNLEALAEYACKLSEQKEQLVETCRLLRHISGTEPLEITCIHAEETFQVTGQQIISAAETLTLHPSSKIAKENLDVFCEAWESQMSDMATLLREISDVFEGRRGERCDHLSLPKPTKNSANLKSLKPDKPDSEEQAKIAKLGLKLGLLSSDADCEIEKWEDEENEIVRHGRNMSRMAYSLYLFTRGEGPLKTSQDLIHFLEVFAAEGLKLTSSVQSFSKQLKDDDKLMLLLEINKLIPLCHQLQTITKTSLQSKVFLKVDKCITKIRSMMTLVVQLLSLCYKLLKKMENNRWGSATNKDTMDGQN

Columns and labels:
IFT20-BirA*-Myc (mouse) [1] = molecular target: IFT20-BirA*-Myc (mouse) (UniProt Q61025); experiment: proximity labelling; BioID: 4T1 cells expressing IFT20-BirA*-Myc, 50 uM biotin for 36 h; RIPA lysis, streptavidin Dynabeads, mass spectrometry; controls parental 4T1 cells and IFT20-BirA*-Myc with DMSO
IFT20-BirA*-Myc (mouse) [2] = molecular target: IFT20-BirA*-Myc (mouse) (UniProt Q61025); experiment: as above; remark: listed apart in the source

Row | Molecule | binding (IFT20-BirA*-Myc (mouse) [1]) | binding (IFT20-BirA*-Myc (mouse) [2])
1 | Tagln2 (from UniProt Q9WVA4 1-199) | binds | –
2 | B1 | – | binds

Where two headings read alike, the source gives them in different places. These are yes or no findings as the source states them, for the method shown. In cells and extracts the contact can be indirect. These calls come from enrichment with a bait or labelling near it, and not all partners need be listed.
